Some results were stated once for a whole list of compounds, not compound by compound.
Biological target: T1, Plk1 (Homo sapiens, UniProt P53350)
T1 construct: in the presence of 15 nM Plk1 (A20-K338)
Experiment: Plk1 inhibition assay (radioactive-phosphate incorporation)
Type: biochemical
Details: Ki(app), bounds printed in mixed units (100 nM to 4 μM)
Description: The compounds of the present invention are evaluated as inhibitors of human PLK kinase using the following assays.
Compounds were screened for their ability to inhibit Plk1 using a radioactive-phosphate incorporation assay. Assays were carried out in a mixture of 25 mM HEPES (pH 7.5), 10 mM MgCl2, and 1 mM DTT. Final substrate concentrations were 50 μM [γ-33P]ATP (136 mCi 33P ATP/mmol ATP, Amersham Pharmacia Biotech/Sigma Chemicals) and 10 μM peptide (SAM68 protein Δ332-443). Assays were carried out at 25° C. in the presence of 15 nM Plk1 (A20-K338). An assay stock buffer solution was prepared containing all of the reagents listed above, with the exception of ATP and the test compound of interest. 30 μL of the stock solution was placed in a 96 well plate followed by addition of 2 μL of DMSO stock containing serial dilutions of the test compound (typically starting from a final concentration of 10 μM with 2-fold serial dilutions) in duplicate (final DMSO concentration 5%). The plate was pre-incubated for 10 minutes at 25° C. and the reaction initiated by addition of 8 μL [γ-33P]ATP (final concentration 50 μM). […]
After removing mean background values for all of the data points, Ki(app) data were calculated from non-linear regression analysis of the initial rate data using the Prism software package (GraphPad Prism version 3.0cx for Macintosh, GraphPad Software, San Diego Calif., USA). […]

Sequences of proteins named here, by UniProt entry; tags and fusion partners are left off. Residues count along the entry.
UniProt P53350, 20-338: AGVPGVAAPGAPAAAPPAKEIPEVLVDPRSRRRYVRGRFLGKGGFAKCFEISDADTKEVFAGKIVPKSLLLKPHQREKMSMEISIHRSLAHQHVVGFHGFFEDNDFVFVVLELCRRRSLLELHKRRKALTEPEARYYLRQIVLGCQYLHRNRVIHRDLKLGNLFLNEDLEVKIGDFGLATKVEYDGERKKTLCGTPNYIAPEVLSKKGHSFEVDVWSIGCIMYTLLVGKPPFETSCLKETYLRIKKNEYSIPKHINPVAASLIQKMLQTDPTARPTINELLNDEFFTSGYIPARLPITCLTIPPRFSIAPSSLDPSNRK

SMILES | Ki
CC(Oc1cc(-c2cccnc2)sc1C(N)=O)c1ccccc1Cl (centres unmarked) [I-1, 3-[1-(2-Chloro-phenyl)-ethoxy]-5-pyridin-3-yl-thiophene-2-carboxylic acid amide] | 100 to 4000 nM
CC(Oc1cc(-c2ccncc2)sc1C(N)=O)c1ccccc1Cl (centres unmarked) [I-2, 3-[1-(2-Chloro-phenyl)-ethoxy]-5-pyridin-4-yl-thiophene-2-carboxylic acid amide] | 100 to 4000 nM

— patent US8853244B2, “Thiophene-carboxamides useful as inhibitors of protein kinases” (Vertex Pharmaceuticals Incorporated, priority 2006, dated 2014)
